No constants are given. Whether binding was seen depends on the method and setting.
Biological target: Ca2+/calmodulin-dependent protein kinase 1D, catalytic domain and autoinhibitory domain (residues 1-333) (human) (UniProt Q8IU85)
Assay: SEC; Superdex-75 in 50 mM Na phosphate pH 7.5, 150 mM NaCl, 0.5 mM TCEP, 0.02% NaN3; final purification step; both purified

Chains of the proteins cited; added tags and fusions are not shown. Lines headed by an entry give the natural chain unless they say otherwise; changes in a name come on top. A line that says so, or that is headed by a name, gives the form on record, which may keep a tag or linker. Residues count along the entry.
Ca2+/calmodulin-dependent protein kinase 1D, catalytic domain and autoinhibitory domain (residues 1-333) (Q8IU85, form named): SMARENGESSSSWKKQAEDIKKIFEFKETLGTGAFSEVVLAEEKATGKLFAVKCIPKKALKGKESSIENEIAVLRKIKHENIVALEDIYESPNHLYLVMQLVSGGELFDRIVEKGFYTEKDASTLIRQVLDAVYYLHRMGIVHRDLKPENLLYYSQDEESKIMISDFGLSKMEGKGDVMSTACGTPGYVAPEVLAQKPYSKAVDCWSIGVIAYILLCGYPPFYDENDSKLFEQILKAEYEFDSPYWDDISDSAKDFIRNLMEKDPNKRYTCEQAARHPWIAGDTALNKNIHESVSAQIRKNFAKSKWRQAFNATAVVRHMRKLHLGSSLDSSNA

“Ca2+/calmodulin-dependent protein kinase 1D, catalytic domain and autoinhibitory domain (residues 1-333) (from UniProt Q8IU85 1-333) (domain or fragment)” was tested, and the binding was “no binding”.

— PMC7462902
